Experimental data published in patent US12018016B2, “Aryl sulfonyl (hydroxy) piperidines as CCR6 inhibitors” (CHEMOCENTRYX, INC., priority 2021, dated 2024).

Amino acid sequences for entries named in this document (tags omitted).
UniProt P51684, whole entry: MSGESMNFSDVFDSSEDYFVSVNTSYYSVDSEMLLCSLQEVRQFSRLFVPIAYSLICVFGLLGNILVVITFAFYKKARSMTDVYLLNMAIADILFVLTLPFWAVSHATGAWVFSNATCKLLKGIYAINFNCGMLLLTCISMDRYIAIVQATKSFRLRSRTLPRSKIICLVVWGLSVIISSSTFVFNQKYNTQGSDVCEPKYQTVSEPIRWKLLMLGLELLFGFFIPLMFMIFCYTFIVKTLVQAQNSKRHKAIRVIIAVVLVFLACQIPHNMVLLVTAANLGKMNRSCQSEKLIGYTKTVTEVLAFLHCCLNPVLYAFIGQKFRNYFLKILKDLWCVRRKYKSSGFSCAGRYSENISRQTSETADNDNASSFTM

Molecular target: human CCR6 (Homo sapiens, UniProt P51684)
Assay: Migration assay (chemotaxis, ChemoTX)
Settings: read-out: Potency (IC50 value in the migration assay); hCCR6-transfected Ba/F3 cells in human serum, migration to recombinant human CCL20 10 nM, 37° C. 45 minutes
Description: A chemotaxis assay can be used to determine the efficacy of potential receptor antagonists at blocking the migration mediated through chemokine receptors, such as CCR6. This assay is routinely performed using the ChemoTX® microchamber system with a 5-μm pore-sized polycarbonate membrane. Chemokine receptor-expressing cells are required for such an assay. In this case, Ba/F3 cells (Palacios et al., Nature, 309:126, 1984) transfected with the gene for human CCR6 under control of the CMV promotor were used. To begin such an assay, hCCR6-transfected Ba/F3 cells are first grown for 24 hr in medium supplemented with sodium butyrate, which increases CCR6 transcription via the CMV promotor. The prepared Ba/F3 cells, are collected by centrifugation at 400×g at room temperature, then suspended at 4 million/ml in human serum. The compound being tested is serially diluted from a maximum final concentration of 1 μM (or an equivalent volume of its solvent (DMSO)) and is then added to the cell/serum mixture. Separately, recombinant human CCL20 (MIP-3α/LARC) at its EC50 concentration (10 nM) is placed in the lower wells of the ChemoTX® plate. […] The amount of fluorescence, corresponding to the number of migrated cells, is measured using a Spectrafluor Plus plate reader (TECAN, San Jose, CA).

pIC50 | SMILES
> 9.00 | O=S(=O)(c1ccc(-c2cnc3[nH]ccc3c2)cc1)N1CC[C@@H](Nc2ccc(C(F)(F)F)cn2)[C@@H](O)C1
> 9.00 | O=c1[nH]ncc2ncc(-c3ccc(S(=O)(=O)N4CC[C@@H](Nc5ccc(C(F)(F)F)cn5)[C@@H](O)C4)cc3)cc12

pIC50: −log10 of the molar value. The structures given here were assigned with low confidence; some may be wrong.
